Measured values taken from the supplement of paper PMC6078165.

Assays:
Assay in all cases: relative JC-1 red fluorescence (viability) vs pre-drug, monoculture (fraction); higher = more viable cancer cells
Settings in all cases: coculture fibroblast: none (monoculture)
MDAMB468 = system: MDAMB468
Method: (§1)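 JC-1 labelled TNBC cells grown in monoculture (density kept equal with unlabelled cancer cells) in 384-well plates in FluoroBrite medium, treated with one of 42 anticancer drugs at 0.1, 1, 10 or 100 uM. JC-1 red fluorescence (mitochondrial integrity, surrogate of apoptotic death) was read by plate reader every 8 h for 72 h. Values are normalised to each well's pre-drug value, with background from alamethicin. The stock of one drug was tenfold lower, so its dose labels may be too high. Monoculture values are repeated alongside each fibroblast plate and are averaged here.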

BT20 = system: BT20
Method: as §1

Hs578T = system: Hs578T
Method: as §1

HCC1143 = system: HCC1143
Method: as §1

COc1cc([C@@H]2c3cc4c(cc3[C@@H](O[C@@H]3O[C@@H]5CO[C@@H](C)O[C@H]5[C@H](O)[C@H]3O)[C@H]3COC(=O)[C@H]23)OCO4)cc(OC)c1O [Etoposide]
relative JC-1 red fluorescence
Settings | 8 h | 16 h | 24 h | 32 h | 40 h | 48 h | 56 h | 64 h | 72 h
BT20, 0.1 µM | 0.932 | 0.845 | 0.792 | 0.721 | 0.687 | 0.674 | 0.65 | 0.646 | 0.646
BT20, 1 µM | 0.903 | 0.801 | 0.775 | 0.692 | 0.644 | 0.624 | 0.6 | 0.599 | 0.59
BT20, 10 µM | 0.909 | 0.821 | 0.734 | 0.6245 | 0.5373 | 0.491 | 0.458 | 0.442 | 0.437
BT20, 100 µM | 0.9133 | 0.854 | 0.787 | 0.6868 | 0.651 | 0.6272 | 0.6084 | 0.599 | 0.6065
HCC1143, 0.1 µM | 0.8684 | 0.7632 | 0.691 | 0.623 | 0.569 | 0.536 | 0.511 | 0.497 | 0.48
HCC1143, 1 µM | 0.843 | 0.762 | 0.7085 | 0.647 | 0.5942 | 0.557 | 0.5257 | 0.507 | 0.486
HCC1143, 10 µM | 0.896 | 0.82 | 0.778 | 0.735 | 0.706 | 0.69 | 0.672 | 0.662 | 0.641
HCC1143, 100 µM | 0.8823 | 0.8016 | 0.726 | 0.672 | 0.626 | 0.579 | 0.554 | 0.523 | 0.499
Hs578T, 0.1 µM | 0.83 | 0.817 | 0.696 | 0.663 | 0.722 | 0.695 | 0.699 | 0.637 | 0.631
Hs578T, 1 µM | 0.7919 | 0.673 | 0.638 | 0.561 | 0.514 | 0.499 | 0.488 | 0.493 | 0.496
Hs578T, 10 µM | 0.819 | 0.728 | 0.745 | 0.666 | 0.644 | 0.616 | 0.628 | 0.577 | 0.608
Hs578T, 100 µM | 0.84875 | 0.763 | 0.753 | 0.691 | 0.652 | 0.632 | 0.611 | 0.612 | 0.604
MDAMB468, 0.1 µM | 0.921 | 0.806 | 0.7335 | 0.664 | 0.621 | 0.625 | 0.598 | 0.588 | 0.585
MDAMB468, 1 µM | 0.868 | 0.784 | 0.748 | 0.689 | 0.652 | 0.65 | 0.634 | 0.622 | 0.624
MDAMB468, 10 µM | 0.9 | 0.805 | 0.791 | 0.751 | 0.723 | 0.719 | 0.697 | 0.69 | 0.681
MDAMB468, 100 µM | 0.887 | 0.817 | 0.799 | 0.733 | 0.701 | 0.708 | 0.683 | 0.672 | 0.678

Values are relative to the signal before dosing, not to a vehicle control; the signal also falls without drug.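 The tumor cells are basal-like or mesenchymal-like triple-negative breast cancer lines cultured without fibroblasts. Reduced red signal indicates lost mitochondrial integrity, serving as a proxy for apoptotic death.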
